This note sets out measurements from article PMC11602165, “A bacterial transcription activator dedicated to the expression of the enzyme catalyzing the first committed step in fatty acid biosynthesis” (Nucleic Acids Research, 2024).

Assay in all cases: two-hybrid; bacterial adenylate cyclase two-hybrid; the same AccR variant in pKT25 and pUT18C, co-transformed into E. coli BTH101; LB plates with X-gal and 0.5 mM IPTG, 30°C, 24 h; β-galactosidase activity in Miller Units
The target in test [1] is AccR wild type, bacterial adenylate cyclase two-hybrid fusions (Shewanella oneidensis) (UniProt Q8EIK0).
Test [2] addresses AccR S103A, bacterial adenylate cyclase two-hybrid fusions (Shewanella oneidensis) (UniProt Q8EIK0).
For test [3], the target named is AccR E105A, bacterial adenylate cyclase two-hybrid fusions (Shewanella oneidensis) (UniProt Q8EIK0).

Changes are numbered by the printed parent chain. Numbers in names are those of the source. These are yes or no findings as the source states them, for the method shown. Some entries that bind do so weakly or less than the wild type. Where a sequence is shown, tags or fusion partners need not be part of it.

B1: AccR wild type, bacterial adenylate cyclase two-hybrid fusions (protein, UniProt Q8EIK0 1-303)
chain: MPDLNGMMLFAAVVRAKGFSQAARETGHPKSTISRKIAQLEEELGVRLLQRDTRNLSLTQVGALFYQHCDSIRNEVEAAKAVIESTHDDVSGSLRIAIPVSFSQELIANLCSGFMRLYPNVELDVQFTDNDIGLVGEGYDIAIKYGPLQSSDLVARLLFERQPILVASPGYLKTRGTPATPKELSDHSGILLGTSRSAPIWPLGKGTRKTMVSFQRKVRVNSPIMVKQLALDDFGIAMLSNSACKTELANGQLVPILQEWPMEPFKVYGVYSSRRQLATNISAFLDFFVKRFSSQESLQSLMG
Turning to B1, the binding result in test [1] is on record as “binds”.

B2: AccR S103A, bacterial adenylate cyclase two-hybrid fusions (protein, UniProt Q8EIK0 1-303)
chain: B1 chain with S103A
Take B2: the binding result in test [2] is “binds”.

B3: AccR E105A, bacterial adenylate cyclase two-hybrid fusions (protein, UniProt Q8EIK0 1-303)
chain: B1 chain with E105A
For the molecule B3, in test [3], the binding result is reported as “binds”.
